# Reference: US7238473
# Where a chain is given by its changes, count along the chain named. Where cells or extracts were used, other partners may take part. For some assays here: No signal at the amounts used counts as a negative. Where a protein sequence is shown, tags need not be part of it. For some assays here: For at least one entry, the source does not settle the construct or the ends of the probe. For some assays here: Weaker means in comparison with the reference protein, sequence or condition of that experiment.
# Experiments:
# TTP C147R (Homo sapiens) = target: T1, TTP C147R (Homo sapiens) (UniProt P26651); test: EMSA; settings: protein in a lysate after overexpression; protein details: C-terminal HA; label: 32P-UTP
# T1 sequence: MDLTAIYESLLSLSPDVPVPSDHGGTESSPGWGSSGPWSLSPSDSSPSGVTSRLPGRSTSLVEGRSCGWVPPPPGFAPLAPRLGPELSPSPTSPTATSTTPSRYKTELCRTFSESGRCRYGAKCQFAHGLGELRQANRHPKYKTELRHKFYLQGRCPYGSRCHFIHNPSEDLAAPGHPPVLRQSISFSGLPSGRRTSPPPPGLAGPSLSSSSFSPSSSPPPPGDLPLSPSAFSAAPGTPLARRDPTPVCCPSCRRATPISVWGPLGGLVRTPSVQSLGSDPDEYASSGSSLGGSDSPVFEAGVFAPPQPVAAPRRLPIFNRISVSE
# TTP C124R (Homo sapiens) = target: T2, TTP C124R (Homo sapiens) (UniProt P26651); test: EMSA; settings: protein in a lysate after overexpression; protein details: C-terminal HA; label: 32P-UTP
# T2 sequence: T1 sequence with C124R, R147C
# [1] = target: T3, TTP (tristetraprolin) wild type (Homo sapiens) (UniProt P26651); test: binding assay; settings: UV cross-linking, protein in a lysate after overexpression, label: 32P-UTP
# T3 sequence: T1 sequence with R147C
# [2] = target: T3, TTP (tristetraprolin) wild type (Homo sapiens); test: EMSA; settings: protein in a lysate after overexpression, label: 32P-UTP
# TTP S228A (Homo sapiens) = target: T4, TTP S228A (Homo sapiens) (UniProt P26651); test: EMSA; settings: protein in a lysate after overexpression; protein details: C-terminal HA; label: 32P-UTP
# T4 sequence: T1 sequence with R147C, S228A
# [3] = target: T5, TTP(97-173) (Homo sapiens) (UniProt P26651); test: EMSA; settings: protein in a lysate after overexpression; protein details: C-terminal HA; label: 32P-UTP; variant of TNFa ARE probe 1281-1350
# T5 sequence: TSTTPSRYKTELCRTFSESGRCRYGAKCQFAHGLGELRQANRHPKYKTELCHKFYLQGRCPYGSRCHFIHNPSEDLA
# [4] = target: T6, TTP(1-173) (Homo sapiens) (UniProt P26651); test: EMSA; settings: protein in a lysate after overexpression; protein details: C-terminal HA; label: 32P-UTP; variant of TNFa ARE probe 1281-1350
# T6 sequence: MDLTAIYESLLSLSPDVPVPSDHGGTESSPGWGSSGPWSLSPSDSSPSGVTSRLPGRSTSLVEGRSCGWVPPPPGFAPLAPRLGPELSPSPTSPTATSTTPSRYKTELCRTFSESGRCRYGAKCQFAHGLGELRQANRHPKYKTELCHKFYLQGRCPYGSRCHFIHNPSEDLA
# [5] = target: T7, TTP(97-326) (Homo sapiens) (UniProt P26651); test: EMSA; settings: protein in a lysate after overexpression; protein details: C-terminal HA; label: 32P-UTP; variant of TNFa ARE probe 1281-1350
# T7 sequence: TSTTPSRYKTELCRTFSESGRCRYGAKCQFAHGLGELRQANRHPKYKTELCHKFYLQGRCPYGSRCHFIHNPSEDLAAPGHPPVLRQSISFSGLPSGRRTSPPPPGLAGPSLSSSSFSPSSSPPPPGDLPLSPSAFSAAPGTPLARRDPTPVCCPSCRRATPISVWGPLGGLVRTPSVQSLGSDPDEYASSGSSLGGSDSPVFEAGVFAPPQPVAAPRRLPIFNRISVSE
# [6] = target: T8, cMG1 (TIS11b/ERF1 homologue) (Rattus norvegicus) (UniProt P17431); test: binding assay; settings: UV cross-linking, protein in a lysate after overexpression, protein details: C-terminal HA, label: 32P-UTP
# T8 sequence (looked up, limits assumed): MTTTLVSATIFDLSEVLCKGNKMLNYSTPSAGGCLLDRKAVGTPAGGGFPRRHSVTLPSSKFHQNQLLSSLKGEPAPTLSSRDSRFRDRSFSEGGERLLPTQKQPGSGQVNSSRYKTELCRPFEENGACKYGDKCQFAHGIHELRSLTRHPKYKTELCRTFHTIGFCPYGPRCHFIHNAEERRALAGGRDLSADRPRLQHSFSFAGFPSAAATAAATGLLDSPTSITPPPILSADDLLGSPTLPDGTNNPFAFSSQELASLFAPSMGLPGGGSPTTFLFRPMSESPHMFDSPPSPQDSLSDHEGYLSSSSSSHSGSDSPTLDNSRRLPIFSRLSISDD
# [7] = target: T9, XC3H-3 (TIS11d/ERF2 homologue) (Xenopus laevis) (UniProt Q7ZXW9); test: binding assay; settings: UV cross-linking, protein in a lysate after overexpression, protein details: C-terminal HA, label: 32P-UTP
# T9 sequence (looked up, limits assumed): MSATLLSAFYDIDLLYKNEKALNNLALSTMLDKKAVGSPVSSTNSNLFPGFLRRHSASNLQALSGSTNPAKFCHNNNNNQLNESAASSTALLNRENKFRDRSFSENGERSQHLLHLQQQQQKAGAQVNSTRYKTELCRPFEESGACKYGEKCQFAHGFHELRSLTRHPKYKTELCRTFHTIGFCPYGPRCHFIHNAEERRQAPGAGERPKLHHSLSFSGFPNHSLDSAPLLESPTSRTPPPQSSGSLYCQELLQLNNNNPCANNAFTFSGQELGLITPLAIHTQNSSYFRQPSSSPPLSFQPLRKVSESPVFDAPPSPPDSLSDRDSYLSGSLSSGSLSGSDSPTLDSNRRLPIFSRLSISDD
# [8] = target: T5, TTP(97-173) (Homo sapiens); test: binding assay; settings: UV cross-linking; protein in a lysate after overexpression; protein details: C-terminal HA; label: 32P-UTP; variant of TNFa ARE probe 1309-1332
# [9] = target: T6, TTP(1-173) (Homo sapiens); test: binding assay; settings: UV cross-linking; protein in a lysate after overexpression; protein details: C-terminal HA; label: 32P-UTP; variant of TNFa ARE probe 1309-1332
# [10] = target: T7, TTP(97-326) (Homo sapiens); test: binding assay; settings: UV cross-linking; protein in a lysate after overexpression; protein details: C-terminal HA; label: 32P-UTP; variant of TNFa ARE probe 1309-1332
# [11] = variant of TNFa ARE probe 1281-1350
# [12] = variant of TNFa ARE probe 1309-1332
sequence,measurement,setting,value
GAAUUCACUGGAGCCUCGAAUGUCCAUUCCUGAGUUCUGCAAAGGGAGAGUGGUCAGGUUGCCUCUGUCUCAGAAUGAGGCUGGAUAAGAUCUCAGGCCUUCCUACCUUCAGACCUUUCCAGACUCUUCCCUGAGGUGCAAUGCACAGCCUUCCUCACAGAGCCAGCCCCCCUCUAUUUAUAUUUGCACUUAUUAUUUAUUAUUUAUUUAUUAUUU [TNFa probe 1110-1325 with 33 A tail],binding result,TTP C147R (Homo sapiens),no binding
same,binding result,TTP C124R (Homo sapiens),no binding
same,binding result,"[1]; almost as well as 1281-1350, EMSA also positive",binds
AGAUCUCAGGCCUUCCUACCUUCAGACCUUUCCAGACUCUUCCCUGAGGUGCAAUGCACAGCCUUCCUCACAGAGCCAGCCCCCCUCUAUUUAUAUUUGCACUUAUUAUUUAUUAUUUAUUUAUUAUUUAUUUAUUUGCUUAUGAAUGUAUUUA [TNFa probe 1197-1350],binding result,[2],binds
same,binding result,TTP C147R (Homo sapiens),no binding
same,binding result,TTP C124R (Homo sapiens),no binding
same,binding result,TTP S228A (Homo sapiens),binds
UUAUUUAUUUAUUAUUUAUUUAUU [TNFa ARE probe 1309-1332],binding result,[2]; [11],binds
same,binding result,[3],binds
same,binding result,[4],binds
same,binding result,[5],binds
same,binding result,[6]; [11],binds
same,binding result,[7]; [11],binds
AGAUCUCAGGCCUUCCUACCUUCAGACCUUUCCAGACUCUUCCCUGAGGUGCAAUGCACAGCCUUCCUCACAGAGCCAGCCCCCCUCUAUUUAUAUUUGCACUU [TNFa probe 1197-1300 (one AUUUA)],binding result,"[1]; barely detectable, variant of TNFa probe 1197-1350",binds more weakly
UUGUUUGUUUGUUGUUUGUUUUUU [TNFa ARE probe 1309-1332 (A/G)],binding result,[1]; [12],no binding
same,binding result,[6]; [12],no binding
same,binding result,[8],no binding
same,binding result,[7]; [12],no binding
same,binding result,[9],no binding
same,binding result,[10],no binding
